Data source: PubChem BioAssay AID1259425 (University of Nebraska Medical Center, 2018)
Screen: 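Compare each knockdown with KSR1 silencing using changes in marker transcripts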 (primary screen). Cell system: HCT116 human colon cancer cells. Reagent: siRNA pool against human genes, 50 nM siRNA. Measured: 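mRNA of six signature genes measured together by branched-DNA assay after 50 nM siRNA pool, blank removed, divided by geometric mean of two housekeeping genes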. Reading the numbers: BNIP3L mRNA: higher = more BNIP3L transcript after knockdown; NDRG1 mRNA: higher = more NDRG1 transcript after knockdown; BNIP3 mRNA: higher = more BNIP3 transcript after knockdown; ALDOC mRNA: higher = more ALDOC transcript after knockdown; ACSL5 mRNA: higher = more ACSL5 transcript after knockdown.
Shown is an unselected part of about 14,000 deposited reagents. Reagent sequences are not shown. The record does not give: the time to read-out.

gene symbol | BNIP3L mRNA, set 1 | NDRG1 mRNA, set 1 | BNIP3 mRNA, set 1 | ALDOC mRNA, set 1 | ACSL5 mRNA, set 1
SWT1 | 0.0615 | 0.107 | 0.147 | 0.0191 | 0.0839
PKN2 | 0.125 | 0.095 | 0.155 | 0.00495 | 0.193
LCAT | 0.114 | 0.155 | 0.241 | 0.0535 | 0.0933
DNAAF2 | 0.486 | 0.55 | 0.881 | 0.278 | 0.0364
RHOC | 0.0494 | 0.203 | 0.233 | 0.0242 | 0.113
MARCHF8 | 0.2 | 0.255 | 0.45 | 0.0363 | 0.107

3 entries from above, reformatted.
| gene symbol | BNIP3L mRNA, set 1 | NDRG1 mRNA, set 1 | BNIP3 mRNA, set 1 | ALDOC mRNA, set 1 | ACSL5 mRNA, set 1 |
| --- | --- | --- | --- | --- | --- |
| PKN2 | 0.125 | 0.095 | 0.155 | 0.00495 | 0.193 |
| LCAT | 0.114 | 0.155 | 0.241 | 0.0535 | 0.0933 |
| DNAAF2 | 0.486 | 0.55 | 0.881 | 0.278 | 0.0364 |

Further reagents follow.
gene symbol | BNIP3L mRNA, set 1 | NDRG1 mRNA, set 1 | BNIP3 mRNA, set 1 | ALDOC mRNA, set 1 | ACSL5 mRNA, set 1
PRPF38B | 0.0565 | 0.379 | 0.287 | 0.013 | 0.229
TBC1D5 | 0.096 | 0.198 | 0.36 | 0.0247 | 0.153
GLRA1 | 0.0545 | 0.228 | 0.269 | 0.0197 | 0.16
RPLP2 | 0.0614 | 0.358 | 0.313 | 0.0214 | 0.0721
SSR4 | 0.0848 | 0.0815 | 0.213 | 0.0111 | 0.237
ADARB1 | 0.104 | 0.305 | 0.265 | 0.0248 | 0.125
ZP4 | 0.11 | 0.213 | 0.324 | 0.0346 | 0.0866
PCSK2 | 0.249 | 0.402 | 0.553 | 0.0621 | 0.189
HNRNPH2 | 0.128 | 0.447 | 0.28 | 0.0232 | 0.287
MED27 | 0.122 | 0.33 | 0.267 | 0.0351 | 0.0468
MSL2 | 1.03 | 4.94 | 3.24 | 0.818 | 0.328
PARD3B | 0.137 | 0.15 | 0.424 | 0.0108 | 0.193
LOC54073 (retired record) | 0.114 | 0.79 | 0.304 | 0.0297 | 0.273
EPHA5 | 0.0654 | 0.0608 | 0.263 | 0.0104 | 0.137
